The nature of this experiment: qHTS Assay to Find Inhibitors of Chronic Active B-Cell Receptor Signaling. Particulars: ABC-DLBCL IkBa-CBG/CBR reporter, luminescence ratio (green luciferase fused to IkBa over red control in TMD8 lymphoma cells), 4 h. The essentials: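 TMD8 ABC-DLBCL cells carrying doxycycline-inducible green luciferase fused to IkappaBalpha plus unfused red luciferase were exposed to compounds (up to 46 uM) for 4 hrs at 37C. Activity came from the overlap-corrected green/red luminescence ratio.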

The mark [1] stands for this setting: measured here: CBR red luminescence, cell number.
Where [2] appears, read: measured here: IkBa-CBG green luminescence.

Some of the results follow. The main result of the screen is listed elsewhere. These columns were measured beside it and carry no call. Compounds called inactive in the main read-out are mostly missing here. Potencies come from curve fits of mixed quality, noted in brackets.

With `CC(=O)Nc1ccc(S(=O)(=O)N2CCN(Cc3cccnc3)CC2)cc1`, under setting [1], the AC50 is 7.31 µM [falling, single point].

As for `CCS(=O)(=O)c1ccc2oc(SCC(=O)NC34CC5CC(CC(C5)C3)C4)nc2c1`, the concentration at half-maximal activity (AC50) under setting [1] is 0.0731 µM [falling, full curve, poor fit].

For `O=C(COC(=O)c1ccc(O)cc1)c1ccc2c(c1)OCCO2`, the AC50 under setting [1] was 13 µM [falling, partial curve].

For `Cc1cccc(CN(CC(=O)N/N=C/c2cccs2)S(=O)(=O)c2ccc(Cl)cc2)c1`, the half-maximal activity concentration (AC50) under setting [1] was 3.55 µM [falling, partial curve, poor fit].

`CC(=O)n1cc(N(C(=O)CCl)c2ccc([N+](=O)[O-])cc2)c2ccccc21`: the AC50 by setting is: under setting [1], 7.08 µM [falling, partial curve]; under setting [2], 10 µM [rising, partial curve, poor fit].

Turning to `Cn1nnnc1SCC(=O)N1CCc2ccccc2C1`, under setting [1], the AC50 was 3.98 µM [rising, single point].

For `C=CCNc1oc(-c2cccs2)nc1C#N`, the AC50 under setting [1] is 11.6 µM [rising, partial curve, poor fit].

Consider `CSc1nnc(Nc2ccccc2C)s1`, for which, under setting [1], the concentration at half-maximal activity (AC50) is 14.6 µM [falling, partial curve, poor fit].

Regarding `NNC(=O)c1ccc(COc2ccc3ccccc3c2)o1`, the AC50 under setting [1] was 7.08 µM [falling, full curve].

As for `Cc1cc(Cl)cc(Cl)c1OCCCCN(C)C`, the concentration at half-maximal activity (AC50) under setting [1] is 18.4 µM [falling, single point].

Turning to `O=S(=O)(NCc1cccs1)c1cccc2cccnc12`, under setting [1], the AC50 is 35.5 µM [rising, partial curve, poor fit].

`COC(=O)c1cc(C)nc(N)c1C#N`: under setting [1], the AC50 was 5.8 µM [falling, full curve, poor fit].

`c1ccc(Nc2nnc(-c3cccc4ccccc34)o2)cc1`: the half-maximal activity concentration (AC50) under setting [1] is 3.16 µM [falling, full curve].

For `COc1ccc(N(CC(=O)Nc2cccc(C)c2)S(=O)(=O)c2ccc(C)cc2)cc1OC`, the AC50 under setting [1] was 2.51 µM [rising, partial curve].

Turning to `CC1Sc2ccc(S(=O)(=O)NCCc3ccc(Cl)cc3)cc2NC1=O` (stereo not given), the AC50 is, setting by setting: under setting [1], 31.6 µM [falling, single point]; under setting [2], 35.5 µM [rising, partial curve, poor fit].

For the compound `O=C(Nc1ccccc1C(=O)O)c1cccc(C(=O)Nc2ccccc2C(=O)O)c1`, under setting [1], the AC50 is 2.51 µM [falling, full curve].

For the compound `CC(C)c1ccc2[nH]c3c(c2c1)CCCC3=O`, under setting [1], the half-maximal activity concentration (AC50) is 11.2 µM [rising, partial curve].

`COCCn1c(=NC(=O)c2cc(-c3cccs3)nc3ccccc23)sc2cc(S(N)(=O)=O)ccc21`: the concentration at half-maximal activity (AC50) under setting [1] is 8.2 µM [falling, partial curve].

As for `N#Cc1c(N2CCCCC2)nc(N)c2c(N)nc(SCC(=O)O)cc12`, the AC50 under setting [1] is 10 µM [falling, partial curve] and the concentration at half-maximal activity (AC50) under setting [2] was 11.2 µM [rising, single point].

As for `O=C(O)CCN1C(=O)/C(=C\c2ccc(-c3nc4ccccc4s3)o2)SC1=S`, the AC50 under setting [1] was 0.651 µM [falling, full curve, poor fit].

Turning to `CC(C)c1ccc(Nc2nc(Cl)nc(NCc3ccco3)n2)cc1`, under setting [1], the AC50 was 31.6 µM [rising, single point].

Regarding `CC(C)Cc1c(O)nc(SCC(=O)Nc2ccc3c(c2)CCC3)[nH]c1=O`, under setting [1], the AC50 is 7.31 µM [rising, partial curve, poor fit].

Consider `Cc1nc(N2CCOCC2)nc2c1CCCC2`, for which the half-maximal activity concentration (AC50) under setting [1] was 25.9 µM [rising, single point].

`NC(=O)C1CCN(C(c2ccccc2Cl)c2nnnn2CC2CCCO2)CC1` (stereo not given): the concentration at half-maximal activity (AC50) under setting [1] was 2.82 µM [rising, partial curve, poor fit].

`O=C(NCc1ccccn1)C(=O)NCC1OCCN1S(=O)(=O)c1ccc(Cl)cc1` (stereo not given): the AC50 under setting [1] is 10 µM [rising, partial curve, poor fit].

Consider `Cc1ccc(N=Nc2c(O)[nH]c3ccc(F)cc23)cc1`, for which the AC50 under setting [1] was 2 µM [rising, partial curve].

`CCOc1cc(C(=O)OCC(=O)c2cc(C)n(CC3CCCO3)c2C)ccc1OCC(=O)N1CCOCC1` (stereo not given): the half-maximal activity concentration (AC50) under setting [1] is 0.1 µM [rising, full curve, poor fit].

`Nc1nc2c(s1)CCc1c-2cnn1-c1ccccc1`: the AC50 under setting [1] was 0.501 µM [rising, full curve].

With `COc1c(Cl)cnn(-c2ccc(Cl)c(Cl)c2)c1=O`, the concentration at half-maximal activity (AC50) under setting [1] is 12.6 µM [falling, single point].

Take `CCOC(=O)c1cccc(NC(=O)C2CCCN2S(=O)(=O)c2cccc3cccnc23)c1` (stereo not given): under setting [1], the concentration at half-maximal activity (AC50) is 2.31 µM [rising, full curve, poor fit].

As for `c1ccc(Oc2nc(Oc3ccccc3)nc(N3CCOCC3)n2)cc1`, under setting [1], the half-maximal activity concentration (AC50) is 9.2 µM [rising, partial curve].

In the case of `Cc1csc(NC(=O)c2c(O)c3c(n(CC(C)C)c2=O)CCCC3)n1`, the AC50 under setting [1] was 20.6 µM [falling, partial curve, poor fit].

For `COc1cc2nc(NC(=O)c3ccccc3)[nH]c(=O)c2cc1OC`, under setting [1], the half-maximal activity concentration (AC50) was 0.092 µM [falling, full curve].

On to `O=[N+]([O-])c1ccc(NNC(=S)Nc2ccccc2)cc1`, for which, under setting [1], the AC50 was 0.103 µM [falling, full curve, poor fit].

For `CCCC1=Nc2cc(C(=O)NCc3ccco3)ccc2Sc2ccccc21`, the AC50 by setting is: under setting [1], 18.4 µM [rising, single point]; under setting [2], 23.1 µM [falling, single point].

For the compound `CSc1ncc(Cl)c(C(=O)Nc2ccc(S(=O)(=O)Nc3nccc(C)n3)cc2)n1`, the AC50 under setting [1] was 15.8 µM [falling, single point].

As for `CCCCN(C)CCCNC(=O)CN1N=C(c2ccc(OC)cc2)CCC1=O`, the half-maximal activity concentration (AC50) under setting [1] is 35.5 µM [falling, partial curve, poor fit].

In the case of `Fc1cc(F)cc(NC(=S)N2CCN(c3ncccn3)CC2)c1`, under setting [1], the AC50 was 35.5 µM [rising, single point].

With `CC(=O)c1c(C)n([O-])c2ccccc2[n+]1=O`, the AC50 under setting [1] was 0.00461 µM [rising, full curve, poor fit].

In the case of `O=C(NCCN1CCN(c2cccc(Cl)c2)CC1)c1ccc(CSc2nc3ccncc3[nH]2)cc1`, under setting [1], the half-maximal activity concentration (AC50) is 20 µM [falling, partial curve].

In the case of `Cc1ccc(C)c(-n2cc(CNCCCn3cccn3)c(-c3ccccc3)n2)c1`, the AC50 under setting [1] is 35.5 µM [falling, single point].

On to `O=C(CCCN1C(=O)/C(=C\c2ccccc2)SC1=S)N1CCOCC1`, for which, under setting [1], the AC50 was 5.8 µM [falling, partial curve].

Take `CC(CCc1ccccc1)NC(=O)C1CCN(S(=O)(=O)c2cnc[nH]2)CC1` (stereo not given): the half-maximal activity concentration (AC50) under setting [1] is 5.8 µM [falling, full curve, poor fit].

Consider `COc1ccc(C(=O)NC(=S)NCc2ccc(-c3nc4ccccc4o3)cc2)cc1OC`, for which the AC50 under setting [1] is 0.92 µM [rising, full curve, poor fit].

Turning to `Cc1scc(C(=O)NNC(=S)NC(C)c2ccccc2)c1C` (stereo not given), the AC50 reads like this: under setting [1], 1.16 µM [rising, full curve]; under setting [2], 25.9 µM [falling, partial curve, poor fit].

Take `O=C(CSc1ccccn1)N1CCOCC1`: the AC50 under setting [1] was 29.1 µM [rising, single point].

With `CCCCCO`, the AC50 under setting [1] is 29.1 µM [rising, single point].

As for `CC(=O)Nc1ccc(C(=O)N/N=C/c2ccncc2)cc1`, the AC50 under setting [1] is 1.78 µM [falling, full curve, poor fit].

With `CC1Oc2ccccc2N(Cc2ccccc2Cl)C1=O` (stereo not given), the AC50 under setting [1] was 25.9 µM [rising, single point].

Regarding `C/C(=N\NC(=O)c1ccc(NS(=O)(=O)c2cccs2)cc1)c1ccc(Cl)cc1`, the AC50 under setting [1] was 20.6 µM [falling, partial curve].

Take `O=C(Nc1ccc2nsnc2c1)c1ccc2c(c1)OCO2`: under setting [1], the AC50 was 0.326 µM [falling, full curve].

In the case of `Cc1ccc(S(=O)(=O)NC2CCCc3ccccc32)cc1C` (stereo not given), the AC50 under setting [1] is 1.84 µM [falling, partial curve, poor fit].

Turning to `O=C(NCCN1CCCC1)c1ccc(Cn2c(=S)[nH]c3cc4c(cc3c2=O)OCO4)cc1`, the concentration at half-maximal activity (AC50) under setting [1] is 35.5 µM [falling, partial curve, poor fit].

As to `CC(C)(C)C(=O)NC(c1ccccc1)c1c(O)ccc2ccccc12` (stereo not given), under setting [1], the AC50 is 31.6 µM [rising, single point].

As for `CSCCOC(=O)C1=C(C)Nc2ccc(C)cc2S1`, the AC50 under setting [1] was 0.0517 µM [rising, full curve, poor fit].

Take `CCc1c(C(C)O)oc2ccc3c(C)cc(=O)oc3c12` (stereo not given): the AC50 under setting [1] was 25.1 µM [rising, partial curve, poor fit].

As to `Cc1ccc(C(=O)c2cc3ccccc3o2)cc1[N+](=O)[O-]`, under setting [1], the AC50 was 3.16 µM [rising, single point].

For the compound `C=CCNC(=O)c1onc(CSc2cc(C)ccc2C)c1C(=O)O`, under setting [1], the AC50 was 10 µM [falling, partial curve].

For the compound `CCc1ccccc1NC(=O)CNC(=O)c1cc(C2CC2)nn1-c1ccccc1`, under setting [1], the AC50 is 29.1 µM [falling, single point].

Consider `Oc1ccc(/C=N/Nc2ncc(Br)cn2)c(O)c1`, for which the AC50 under setting [1] is 32.6 µM [falling, single point].

In the case of `CCc1nnc(NC2=NCCC2)s1`, the half-maximal activity concentration (AC50) under setting [1] is 16.4 µM [falling, partial curve].

Regarding `CC(C)CN1C=C2C(=O)C(C)(OC(=O)C3CCCC3)C(=O)C=C2C=C1c1ccsc1` (stereo not given), the concentration at half-maximal activity (AC50) under setting [1] is 35.5 µM [rising, single point].

As for `O=C(CCN1CCc2ccccc2C1)Nc1ccccc1F`, the AC50 under setting [1] was 5.8 µM [falling, partial curve].

Regarding `O=C(Nc1cccc(S(=O)(=O)Nc2ccc(Cl)cc2)c1)c1ccc2c(c1)OCCO2`, the half-maximal activity concentration (AC50) by setting is: under setting [1], 23.1 µM [falling, partial curve]; under setting [2], 13 µM [rising, partial curve, poor fit].
